In US6573078B1, “Compounds which inhibit HIV replication” (priority 1992, dated 2003):
Part of at least one peptide drawing is inferred or uncertain, most often the ends.

Assays:
HIV-1LAI virus = assay: Peptide blockade of HIV-1 induced cell-cell fusion (syncytia formation; Molt4 cells co-cultivated with chronically infected CEM cells); format: cell-based; details: for No. Syncytia/well: Table 3, ctrl cells only = 85
Method: The initial screen for antiviral activity of the peptides shown in FIG. 1 was for blockade of syncytium formation induced by overnight co-cultivation of uninfected Molt4 cells with chronically infected (HIV-1IIIB) CEM cells.
Approximately 7×10^4 Molt cells were incubated with 1×10^4 CEM cells chronically infected with the HIV-1LAI virus in 96 well plates (one-half area cluster plates;Costar. Cambridge, Mass.) in a final volume of […] culture media in accordance with known techniques (T. Matthews et al., Proc. Natl. Acad. Sci. U.S.A. 84, 5424 (1987)). Peptide inhibitors were added in a volume of […] and the cell mixtures were incubated for 24 hr at 37° C. At that time point, multinucleated giant cells were estimated by microscopic examination at a 40× magnification which allowed visualization of the entire well in a single field.

HIV-1LAI [1] = assay: Peptide inhibition of PBMC infection by prototypic isolate (RT activity readout); format: cell-based; details: FIG. 5
Method: (§1) About 25 TCID100 of two primary isolates and HIV-1LAI were added to […] human PBMCs (about 1.5×10^6/ml) containing the indicated final concentrations of test peptide or 5T4. Each treatment condition was tested in duplicate and the cells were cultured in RPMI1640 containing 10% FCS 5% IL2. Four days post infection an equal number of fresh PBMCs were added to each well. This step allows for further expansion of virus and increases the […] in the final RT assay. Supernatant was harvested 8 days after infection and tested for the presence of reverse transcriptase activity.
(§2) The micro RT assay was adapted from Goff et al. (J. Virol. 38, 239 (1981)) and Willey et al. (J. Virol. 62, 139 (1988)). Supernatants from virus/cell cultures are made 1% in Triton-X100. A […] sample of supernatant was added to 50 ml of RT cocktail in a 96 well U bottom microtiter plate and the samples incubated at 370° C. for 90 min. […]
(§3) The HIV1LAI virus was obtained from R. Gallo (see M. Popovic et al., Science 224, 497 (1984)) and propagated in CEM cells cultured in RPMI 1640 containing 10-% FCS. […] The TCID50 was calculated according to the Reed and Muench formula in accordance with known techniques. […] The titer of the HIV-1LAI stock used for these studies, as measured on the AA5 cell line, was approximately 1×10^7TCID50/ml. […]

HIV-1 SF2 = assay: Blockade of fusion mediated by other prototypic isolate SF2; format: cell-based
[2] = tested on: two primary HIV-1 isolates (HIV-1Br3, HIV-1Q72775); assay: Peptide inhibition of PBMC infection by primary isolates (RT activity readout); format: cell-based; details: FIG. 5
Method: as §1, §2, §3

[3] = Circular dichroism spectra / thermal melt (secondary structure in solution); format: physicochemical; details: for Mean molar ellipticity [Q]222: 10 mM sodium phosphate, 150 mM sodium chloride, pH 7.0
Method: (A) and 37° C. (B). Concentration dependence of the midpoint of the temperature dependence (Tm) of the CD signal (C). Tm corresponds to the maxima of the first derivative of the CD melt curve. The CD spectra were obtained in […], 150 mM sodium chloride buffer at pH 7.0.
Circular dichroism spectra were measured in 10 mM sodium phosphate, 150 mM sodium chloride, pH 7.0 buffer at approximately […] using a 1 cm pathlength cell on a Jobin/Yvon Autodichrograph Mark V CD spectrometer. Peptide concentrations were determined from A280 using Edlehoch's method (Biochemistry 6, 1948 (1967)).

HIV-1LAI virus stock = assay: Test for direct virocidal effect (virus treated, pelleted, infectivity on AA5 cells); format: cell-based; details: FIG. 4
HIV-1 RF = assay: Blockade of fusion mediated by other prototypic isolate RF; format: cell-based
HIV-1LAI [4] = assay: Peptide inhibition of infection by cell-free virus (neutralization assay; AA5 cells, RT activity readout); format: cell-based
Method: Cell cultures were maintained in 96-well microtiter plates for 8 days by addition of fresh medium (but no further addition of peptides) every other day. On the eighth day post-infection, supernatant was tested for reverse transcriptase activity as evidence of successful infection.
as §2, with “min. The cocktail contained 75 mM KCl, 2 mM dithiothreitol, 5 mm Mgcl2l 5 mg/ml poly A (Pharmacia cat. No. 27-4110-01), 0.25 units/ml oligo dT (Pharmacia cat. No. 27-7858-01), 0.05% NP40, 50 mM Tris-HC1, pH 7.8, 0.5 mM non-radioactive dTTP, and 10 mCi/ml ^32p-dTTP (Amersham cat. No. PB.10167).” for “min.”
as §3

HIV-1MN = assay: Blockade of fusion mediated by other prototypic isolate MN; format: cell-based

## Ac-NNLLRAIEAQQHLLQLTVWGIKQLQARILAVERYLKDQ-NH2 [DP-107]
HIV-1LAI virus; EXP. 1, peptide concentration 1.5 micrograms/ml, 0 peptide = 89
  Syncytia Number: 80
HIV-1LAI virus; EXP. 1, peptide concentration 3 micrograms/ml, 0 peptide = 89
  Syncytia Number: 46
HIV-1LAI virus; EXP. 1, peptide concentration 6 micrograms/ml, 0 peptide = 89
  Syncytia Number: 0
HIV-1LAI virus; EXP. 1, peptide concentration 12 micrograms/ml, 0 peptide = 89
  Syncytia Number: 0
HIV-1LAI virus; EXP. 1, peptide concentration 25 micrograms/ml, 0 peptide = 89
  Syncytia Number: 0
HIV-1LAI virus; EXP. 1, peptide concentration 50 micrograms/ml, 0 peptide = 89
  Syncytia Number: 0
HIV-1LAI virus; EXP. 2, peptide concentration 1.25 micrograms/ml, 0 peptide = 93
  Syncytia Number: 98
HIV-1LAI virus; EXP. 2, peptide concentration 2.5 micrograms/ml, 0 peptide = 93
  Syncytia Number: 83
HIV-1LAI virus; EXP. 2, peptide concentration 5 micrograms/ml, 0 peptide = 93
  Syncytia Number: 36
HIV-1LAI virus; EXP. 2, peptide concentration 10 micrograms/ml, 0 peptide = 93
  Syncytia Number: 0
HIV-1LAI virus; EXP. 2, peptide concentration 20 micrograms/ml, 0 peptide = 93
  Syncytia Number: 0
HIV-1LAI virus; EXP. 2, peptide concentration 40 micrograms/ml, 0 peptide = 93
  Syncytia Number: 0
HIV-1LAI virus; peptide concentration 1.25 ug/ml on IIIB
  No. Syncytia/well: 88
HIV-1LAI virus; peptide concentration 2.5 ug/ml on IIIB
  No. Syncytia/well: 68
HIV-1LAI virus; peptide concentration 5 ug/ml on IIIB
  No. Syncytia/well: 4
HIV-1LAI virus; peptide concentration 10 ug/ml on IIIB
  No. Syncytia/well: 0
HIV-1LAI virus; peptide concentration 20 ug/ml on IIIB
  No. Syncytia/well: 0
HIV-1LAI virus; peptide concentration 40 ug/ml on IIIB
  No. Syncytia/well: 0
HIV-1LAI virus; control = 90 syncytia
  Fusion: quantity of compound required for 90% reduction in number of syncytia: 5 µg/mL
HIV-1LAI virus; first experiment of Table 1
  Concentration down to which complete protection from cell fusion was afforded: 6 mg/mL
HIV-1LAI [1]
  Inhibition of PBMC infection by prototypic isolate HIVLAI (in words): inhibit
HIV-1 SF2
  Blockade of fusion (in words): blocked fusion
[2]
  Inhibition of PBMC infection by primary isolates (in words): inhibit
[3]; 0° C.
  Folded (alpha helix) from ellipticity: approximately 100%
  Mean molar ellipticity [Q]222: −32,000
[3]; 10 mM concentration of peptide
  Midpoint of the melting curve (Tm): approximately 72 °C
[3]; 37° C.
  Folded (alpha helix) from ellipticity: ~85%
  Mean molar ellipticity [Q]222: −27,000
HIV-1LAI virus stock
  Direct action on cell-free virions (in words): does not act directly on the cell-free virions
HIV-1 RF
  Blockade of fusion (in words): blocked fusion
HIV-1LAI [4]
  Neutraliz: quantity of compound required for 90% reduction in infectivity: 10 µg/mL
HIV-1LAI [4]; about 500 TCID50 of virus, RT activity in supernatant, FIG. 3
  Blockade of HIVLAI infection of AA5 cells (in words): inhibited the de-novo infection process
HIV-1MN
  Blockade of fusion (in words): blocked fusion
